Results are given in words; binding and its absence hold for the method and conditions named. Binding seen in cells or lysates may run through a third protein. Here binding means that the protein was enriched with, or labelled near, the bait; the list need not be complete.
Target: Pdia4 (endogenous, Min6 cells) (mouse (endogenous in Min6)) (UniProt P08003)
Assay: affinity purification with mass spectrometry; Min6 cells lysed with RIPA buffer; lysates precipitated with anti-Pdia4 antibody and isotype antibody; LC-MS, Mascot search

Chains of the proteins cited; added tags and fusions are not shown. Residues count along the entry.
UniProt P08003, residues 21-638: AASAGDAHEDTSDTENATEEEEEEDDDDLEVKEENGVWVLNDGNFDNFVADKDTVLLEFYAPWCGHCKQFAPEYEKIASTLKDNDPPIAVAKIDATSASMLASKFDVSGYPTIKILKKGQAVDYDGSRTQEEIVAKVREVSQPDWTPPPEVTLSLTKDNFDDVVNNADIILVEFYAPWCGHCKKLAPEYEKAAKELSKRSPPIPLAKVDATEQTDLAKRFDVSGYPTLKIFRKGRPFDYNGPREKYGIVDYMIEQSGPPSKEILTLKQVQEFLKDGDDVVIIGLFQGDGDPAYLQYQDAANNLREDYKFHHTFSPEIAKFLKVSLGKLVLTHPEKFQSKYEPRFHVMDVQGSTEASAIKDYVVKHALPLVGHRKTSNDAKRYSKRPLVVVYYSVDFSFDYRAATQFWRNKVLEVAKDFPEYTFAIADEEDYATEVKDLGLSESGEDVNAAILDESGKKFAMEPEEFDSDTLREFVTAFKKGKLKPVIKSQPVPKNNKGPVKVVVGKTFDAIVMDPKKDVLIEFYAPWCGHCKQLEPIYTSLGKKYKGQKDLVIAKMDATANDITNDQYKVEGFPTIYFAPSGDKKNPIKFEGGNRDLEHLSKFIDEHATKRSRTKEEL
UniProt Q9DCT2, residues 36-263: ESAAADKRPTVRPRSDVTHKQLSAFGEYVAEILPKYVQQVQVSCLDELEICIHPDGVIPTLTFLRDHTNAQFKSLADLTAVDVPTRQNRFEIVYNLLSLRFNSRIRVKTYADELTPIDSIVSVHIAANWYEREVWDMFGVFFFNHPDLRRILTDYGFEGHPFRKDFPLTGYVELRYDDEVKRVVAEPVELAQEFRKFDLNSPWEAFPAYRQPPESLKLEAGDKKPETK

Molecule: Ndufs3 (endogenous, Min6 cells) (from UniProt Q9DCT2 36-263)
- binding: binds

B1: p22^phox (endogenous, Min6 cells) (protein, UniProt Q61462 1-192)
chain: MGQIEWAMWANEQALASGLILITGGIVATAGRFTQWYFGAYSIAAGVLICLLEYPRGKRKKGSTMERCGQKYLTSVVKLFGPLTRNYYVRAALHFLLSVPAGFLLATILGTVCLAIASVIYLLAAIRGEQWTPIEPKPKERPQVGGTIKQPPTNPPPRPPAEVRKKPSEGEEEAASAGGPQVNPMPVTDEVV
- binding: binds
